Results from article PMC11155057.
No constants are given. Whether binding was seen depends on the method and setting. In cells and extracts the contact can be indirect. Some binding calls cover weakened binding; strength is not graded here.

The chains behind the UniProt entries cited, without tags or fusion partners. Residues count along the entry.
UniProt O00206, residues 24-839: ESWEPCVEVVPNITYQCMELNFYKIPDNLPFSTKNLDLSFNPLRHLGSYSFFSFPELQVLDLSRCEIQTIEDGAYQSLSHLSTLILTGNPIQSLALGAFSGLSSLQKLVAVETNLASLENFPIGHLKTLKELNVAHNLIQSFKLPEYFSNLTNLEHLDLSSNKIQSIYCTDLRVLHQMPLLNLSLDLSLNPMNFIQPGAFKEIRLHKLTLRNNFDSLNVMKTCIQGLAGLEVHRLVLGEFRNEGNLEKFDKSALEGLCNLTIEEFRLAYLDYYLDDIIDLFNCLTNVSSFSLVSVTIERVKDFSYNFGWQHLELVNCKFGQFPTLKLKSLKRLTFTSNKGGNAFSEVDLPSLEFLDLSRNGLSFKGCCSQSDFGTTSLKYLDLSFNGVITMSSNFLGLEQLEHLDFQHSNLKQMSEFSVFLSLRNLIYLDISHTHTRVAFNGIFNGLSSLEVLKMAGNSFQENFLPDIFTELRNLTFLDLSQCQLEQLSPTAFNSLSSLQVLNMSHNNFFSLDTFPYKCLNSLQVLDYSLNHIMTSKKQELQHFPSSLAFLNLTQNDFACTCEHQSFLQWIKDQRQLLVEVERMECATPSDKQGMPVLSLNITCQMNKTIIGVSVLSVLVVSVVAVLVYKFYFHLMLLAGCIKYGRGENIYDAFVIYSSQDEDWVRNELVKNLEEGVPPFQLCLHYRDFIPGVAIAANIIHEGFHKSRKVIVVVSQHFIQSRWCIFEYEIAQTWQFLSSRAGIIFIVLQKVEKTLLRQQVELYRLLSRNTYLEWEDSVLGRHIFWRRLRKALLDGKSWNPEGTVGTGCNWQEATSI
UniProt O14543: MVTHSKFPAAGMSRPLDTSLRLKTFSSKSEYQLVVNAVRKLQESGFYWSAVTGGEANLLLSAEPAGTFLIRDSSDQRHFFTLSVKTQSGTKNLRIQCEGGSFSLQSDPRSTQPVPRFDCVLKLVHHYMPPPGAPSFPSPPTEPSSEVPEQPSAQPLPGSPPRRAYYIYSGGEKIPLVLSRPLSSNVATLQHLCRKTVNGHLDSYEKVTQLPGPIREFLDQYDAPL

Target: Toll-like receptor 4 (human (endogenous in HK-2)) (UniProt O00206)
Experiment: co-IP; HK-2 cells transfected with pCMV empty vector or pCMV SOCS-3 for 48 h; lysed in IP Lysis/Wash Buffer with protease and phosphatase inhibitors; Pierce Co-Immunoprecipitation Kit; blots with anti-SOCS3 and anti-TLR4; cells under normal glucose (NG) or high glucose (HG), HG reduced the interaction

binding: binds
Substance: suppressor of cytokine signaling 3 (from UniProt O14543 1-225)
